The subject of this assay is HEK293A TEAD-LUC reporter. The experiment in a line: TEAD-luciferase reporter activity (YAP activation), robust Z score vs plate; higher = stronger YAP/TEAD activation. The settings on record: 24 h. In general terms: A reporter such as luciferase makes a cellular process visible.

This note sets out measurements from the supplement of paper PMC10735217.

Molecules are shown by their SMILES. Counter-ions that a name gives are not always drawn. This is one part of the list. This data set is noisy: repeats of one test often differ as much as different tests do.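 In a drug-repurposing library screen, luminescence reads luciferase driven by eight TEAD-binding elements, stably integrated into human kidney-derived cells. Compounds scoring over five robust Z scores above the plate mean are called hits.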

Consider `CC(C)(C)Cn1c(N)nc2ccc(-c3[nH]c(C(C)(C)C)nc3-c3ccc(F)cc3)nc21`, for which the TEAD-luciferase reporter activity is, setting by setting: (compound concentration: 200 nM) inactive: -0.997; (compound concentration: 2 uM) inactive: -1.34; (compound concentration: 10 uM) inactive: 1.88.

Consider `O=NN(CCCl)C(=O)NC1CCCCC1`, for which the TEAD-luciferase reporter activity (compound concentration: 200 nM) was inactive: 0.449 and the TEAD-luciferase reporter activity (compound concentration: 10 uM) is inactive: -2.25.

Consider `O=NN(CCCl)C(=O)NC1CCCCC1` [lomustine], for which the TEAD-luciferase reporter activity (compound concentration: 2 uM) is inactive: -1.33.

In the case of `Cc1nnc(-c2ccc(-c3ccc(N4C[C@H](C(N)=O)OC4=O)cc3)cn2)s1`, the TEAD-luciferase reporter activity was inactive: -0.848 (compound concentration: 200 nM), inactive: 1.3 (compound concentration: 2 uM) and inactive: 2.62 (compound concentration: 10 uM).

Take `CCC1(O)CC(OC2CC(N(C)C)C(OC3CC(O)C(OC4CCC(=O)C(C)O4)C(C)O3)C(C)O2)c2c(cc3c(c2O)C(=O)c2c(O)cccc2C3=O)C1C(=O)OC` (stereo not given) [aclarubicin]: the TEAD-luciferase reporter activity was inactive: 1.63 (compound concentration: 200 nM), active: 6.71 (compound concentration: 2 uM) and active: 39 (compound concentration: 10 uM).

Regarding `CCSC1Oc2cc(O)ccc2C=C1c1ccc(O)cc1` (stereo not given), the TEAD-luciferase reporter activity is, setting by setting: (compound concentration: 200 nM) inactive: -1.53; (compound concentration: 10 uM) inactive: -0.299.

On to `C#C[C@]1(O)CC[C@H]2[C@@H]3CCC4=CC(=O)CC[C@@H]4[C@H]3CC[C@@]21C` [Norethisterone], for which the TEAD-luciferase reporter activity (compound concentration: 2 uM) was inactive: -0.894.

For `C#C[C@]1(O)CC[C@H]2[C@@H]3CCC4=CC(=O)CC[C@@H]4[C@H]3CC[C@@]21C` [19-Norethindrone], the TEAD-luciferase reporter activity is inactive: -1.59 (compound concentration: 200 nM) and inactive: -0.16 (compound concentration: 10 uM).

With `CNC(=O)c1ccccc1Nc1nc(Nc2ccc3c(c2OC)CCC[C@H](N2CCN(CCO)CC2)C3)ncc1Cl`, the TEAD-luciferase reporter activity (compound concentration: 200 nM) was inactive: -2.04, the TEAD-luciferase reporter activity (compound concentration: 2 uM) is inactive: -1.97 and the TEAD-luciferase reporter activity (compound concentration: 10 uM) was inactive: 0.942.

As to `NS(=O)(=O)c1cc2c(cc1C(F)(F)F)NCNS2(=O)=O`, the TEAD-luciferase reporter activity (compound concentration: 200 nM) is inactive: 0.389 and the TEAD-luciferase reporter activity (compound concentration: 10 uM) is inactive: -0.391.

For `NS(=O)(=O)c1cc2c(cc1C(F)(F)F)NCNS2(=O)=O` [Hydroflumethiazide], the TEAD-luciferase reporter activity (compound concentration: 2 uM) was inactive: -0.0317.

As to `CC(C)(CCc1ccccc1)NCC(O)c1ccc2c(c1)CCC(=O)N2` (stereo not given), the TEAD-luciferase reporter activity (compound concentration: 200 nM) was inactive: -0.0218, the TEAD-luciferase reporter activity (compound concentration: 2 uM) was inactive: -0.958 and the TEAD-luciferase reporter activity (compound concentration: 10 uM) is inactive: 4.9.

As to `CCN(c1cc(-c2ccc(CN3CCOCC3)cc2)cc(C(=O)NCc2c(C)cc(C)[nH]c2=O)c1C)C1CCOCC1` [tazemetostat], the TEAD-luciferase reporter activity (compound concentration: 200 nM) is inactive: -0.913, the TEAD-luciferase reporter activity (compound concentration: 2 uM) was inactive: -1.03 and the TEAD-luciferase reporter activity (compound concentration: 10 uM) is inactive: -1.3.

As to `N#Cc1ccccc1CN1CCSC1=O`, the TEAD-luciferase reporter activity (compound concentration: 200 nM) was inactive: -1.11, the TEAD-luciferase reporter activity (compound concentration: 2 uM) is inactive: -0.898 and the TEAD-luciferase reporter activity (compound concentration: 10 uM) is inactive: 3.39.

In the case of `OC[C@H]1O[C@@H](Oc2cc3c(O)cc(O)cc3[o+]c2-c2cc(O)c(O)c(O)c2)[C@H](O[C@@H]2OC[C@@H](O)[C@H](O)[C@H]2O)[C@@H](O)[C@@H]1O` [Delphinidin-3-sambubioside], the TEAD-luciferase reporter activity was inactive: -0.789 (compound concentration: 200 nM), inactive: 3.43 (compound concentration: 2 uM) and inactive: -0.429 (compound concentration: 10 uM).

For `CC(C)NCC(O)COc1cccc2sncc12` (stereo not given), the TEAD-luciferase reporter activity is, setting by setting: (compound concentration: 200 nM) inactive: -0.518; (compound concentration: 2 uM) inactive: 0.0582; (compound concentration: 10 uM) inactive: -0.24.

Turning to `O=C([O-])c1cccc(/C=C2/C[C@@H]3[C@@H](/C=C/[C@@H](O)C4CCCCC4)[C@H](O)C[C@@H]3O2)c1` [Taprostene sodium salt], the TEAD-luciferase reporter activity by setting is: (compound concentration: 200 nM) inactive: -0.0559; (compound concentration: 2 uM) inactive: -0.167; (compound concentration: 10 uM) inactive: 0.0463.

As for `COCc1nnc(-c2ccc[n+]([O-])c2)n1-c1c(Cl)c(Cl)cc2c1=NC(=O)C(=O)N=2`, the TEAD-luciferase reporter activity (compound concentration: 200 nM) was inactive: 0.942, the TEAD-luciferase reporter activity (compound concentration: 2 uM) was inactive: -0.699 and the TEAD-luciferase reporter activity (compound concentration: 10 uM) was inactive: 0.834.

In the case of `CC[C@H](C)[C@H](N)C(=O)n1nc(C)c2c(Cl)c3cc(OC)ccc3nc21`, the TEAD-luciferase reporter activity is, setting by setting: (compound concentration: 200 nM) inactive: 3.13; (compound concentration: 2 uM) inactive: -1.26; (compound concentration: 10 uM) inactive: -1.93.

Take `CC(C)c1onc(-c2c(Cl)cccc2Cl)c1COc1ccc(-c2ccc3c(C(=O)O)cccc3c2)cc1`: the TEAD-luciferase reporter activity is, setting by setting: (compound concentration: 200 nM) inactive: -0.413; (compound concentration: 2 uM) inactive: -0.756; (compound concentration: 10 uM) inactive: 2.03.

With `COC1CC(OC2C(C)C(=O)OC(C)C(C)C(O)C(C)C(=O)C3(CO3)CC(C)C(OC3OC(C)CC(N(C)C)C3O)C2C)OC(C)C1O` (stereo not given), the TEAD-luciferase reporter activity by setting is: (compound concentration: 200 nM) inactive: 0.176; (compound concentration: 2 uM) inactive: -0.71; (compound concentration: 10 uM) inactive: -1.05.

As for `C[C@]12C=CC(=O)C=C1CC[C@@H]1[C@@H]2[C@@H](O)C[C@@]2(C)[C@H]1C[C@H]1O[C@@H](C3CCCCC3)O[C@]12C(=O)CO` [Desisobutyrylciclesonide], the TEAD-luciferase reporter activity reads like this: (compound concentration: 200 nM) active: 8.77; (compound concentration: 2 uM) inactive: 0.146; (compound concentration: 10 uM) inactive: -0.0684.

`CCC1=NC(NC(=O)Nc2cccc(C)c2)C(=O)N(CC(=O)C2CCCCC2)c2c(C)cccc21` (stereo not given): the TEAD-luciferase reporter activity reads like this: (compound concentration: 200 nM) inactive: -0.434; (compound concentration: 2 uM) inactive: -0.215; (compound concentration: 10 uM) inactive: -0.332.

In the case of `S=C1NCCC(COc2ccccc2)O1` (stereo not given), the TEAD-luciferase reporter activity reads like this: (compound concentration: 200 nM) inactive: -0.436; (compound concentration: 10 uM) inactive: -0.31.

`C[C@]1(C(=O)N2CCOCC2)CO[C@@H](c2nc(-c3ccncc3)c(-c3ccc(F)cc3)[nH]2)OC1`: the TEAD-luciferase reporter activity was inactive: -1.15 (compound concentration: 200 nM), inactive: -1.33 (compound concentration: 2 uM) and inactive: 0.387 (compound concentration: 10 uM).

Turning to `COC(=O)Nc1cccc(-c2ccc(N3C[C@H](CNC(C)=O)OC3=O)cc2F)c1`, the TEAD-luciferase reporter activity by setting is: (compound concentration: 200 nM) inactive: -0.367; (compound concentration: 2 uM) inactive: 2.26; (compound concentration: 10 uM) inactive: 4.05.

For the compound `Cc1cc(NC(=O)NS(=O)(=O)c2ccccc2)ccc1C(C)C`, the TEAD-luciferase reporter activity is inactive: -0.653 (compound concentration: 200 nM), inactive: -1.5 (compound concentration: 2 uM) and active: 5.85 (compound concentration: 10 uM).
